Measured values taken from patent WO2018121580A1.
These are yes or no findings as the source states them, for the method shown. Some entries that bind do so weakly or less than the wild type.

Sequences of proteins named here, by UniProt entry; tags and fusion partners are left off. A change or cut given only in a name is not applied to a line headed by its entry. A line that says so, or that is headed by a name, gives the form on record, which may keep a tag or linker.
CD147 protein (P35613, form named): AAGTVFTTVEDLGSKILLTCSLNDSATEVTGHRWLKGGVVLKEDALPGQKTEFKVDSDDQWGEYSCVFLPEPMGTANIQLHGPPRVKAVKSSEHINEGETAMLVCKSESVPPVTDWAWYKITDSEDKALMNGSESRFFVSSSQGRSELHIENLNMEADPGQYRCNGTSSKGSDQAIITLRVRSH

Assays:
CD147 protein [1] = molecular target: CD147 protein (UniProt P35613); experiment: ELISA relative binding activity (EC50 against a reference), dilution stability test at 25±2 °C for 7 days
CD147 protein [2] = molecular target: CD147 protein (UniProt P35613); experiment: ELISA relative binding activity (EC50 against a reference), long-term stability test at 2-8 °C for 2 years
CD147 protein [3] = molecular target: CD147 protein (UniProt P35613); experiment: ELISA relative binding activity (EC50 against a reference), after high temperature, light and freeze-thaw stress

Measured: binding

B1: HcHAb18 monoclonal antibody (antibody, human IgG1, kappa, V domains shown)
VH: EVKLEESGGGLVQPGGSMKLSCVASGFTFSDAWMDWVRQSPEKGLEWVAEIRSKANNHAPYYTESVKGRFTISRDDSKSIIYLQMNNLRAEDTGIYYCTRDSTATHWGQGTLVTVSA
VL: SIVMTQTPTFLVVSAGDRVTITCKASQSVINDVAWYQQKPGQSPKLLIFYASNRNTGVPDRFTGSGYGTDFTFTISTVQAEDLAVYFCQQDYSPPFTFGSGTKLEIKR
binds: all assays above
